The text below walks through data of patent publication US8871741B2, “Inhibition of TNF-α induced activation of NFKB by pentosan polysulfate” (Icahn School of Medicine at Mount Sinai, priority 2010, dated 2014).

The data set deals with 22 month-old diabetic C57B6 mice. The experiment in a line: Diabetic nephropathy in aged streptozotocin-diabetic C57B6 mice (albuminuria, renal histology, morphometry, serum chemistry). As to conditions: 22 month-old diabetic mice treated with PPS, n = 10; mean±SD. It is filed as in vivo, mouse. The protocol:
4 and 16-17 month-old female C57B6 mice were obtained from National Institute on Aging and were injected with streptozotocin to induce diabetes. Mice were given 50 μg/g of streptozotocin in every three days, for a total of 5-8 injections. A total of 250-400 μg/g of streptozotocin was sufficient in most of mice to induce stable hyperglycemia (≧250 mg/dL). The streptozotocin dose required to establish stable diabetes was similar between […] and 4 month-old mice. There was less than 10% of mortality in both age groups of diabetic mice with this streptozotocin protocol. Dead mice were excluded from further study. Mice with stable diabetes at 5 or 18 months of age were selected for randomization. Female C57B6 mice were chosen as the onset and nature of renal lesions in aging was documented by the inventors herein These mice have irregular, lengthened estrous cycles around 10 to 14 months of age and the cycles usually cease at 18 months of age. […] 18 month-old diabetic mice were randomly divided into PPS treated (n=10, PPS 25 mg/kg/day in drinking water) and control (n=11) groups. No PPS treatment was given to 5 month-old diabetic mice. Both age groups of diabetic mice were followed for 4 months without insulin treatment. Body weight and blood glucose levels were monitored weekly. Urine albumin excretion was measured bi-weekly using an ELISA kit (Bethyl Laboratory Inc, Houston, Tex., USA), as previously described (Zheng F, et al. Am J Pathol 2003, 162:1339-1348). Urine creatinine levels were measured in the same samples and the urine albumin excretion rate was expressed as the ratio of albumin to creatinine Blood urea nitrogen (BUN) levels and serum creatinine levels were examined at sacrifice. […]
Mice were sacrificed 4 months after stable hyperglycemia was established. […] The glomerular volume and mesangial area were determined by examining plastic embedded sections using a digitizing tablet and video camera. The relative mesangial area was expressed as mesangial/glomerular surface area. Glomerular cell number was determined by counting the nuclear number in at least 30 glomeruli of each section. The glomerular basement membrane thickness was measured by the orthogonal intercept method on electron microscopic images. To determine the number of glomerular fenestrae, the length of was fenestrated or unfenestrated glomerular capillary endothelial cytoplasm was measured. […] Tubulointerstitial lesions were scored from 0 to 4 (0, no changes; 1+, changes affecting <25% of the sample; 2+, changes affecting 25 to 50% of the sample; 3+, changes affecting 50 to 75% of the sample; 4+, changes affecting 75 to 100% of the sample) based on tubular atrophy, increase in the thickness of basement membranes and interstitial area, and clusters of inflammatory cells.

Consider pentosan polysulfate [PPS], for which the Body weight came to 24.1 ± 1.3 g, the Glucose worked out at 332 ± 68 mg/dL, the Heart weight turned out to be 170 ± 14 mg and the Kidney weight is on record as 221 ± 23 mg.
